In publication PMC10883278:
These are yes or no findings as the source states them, for the method shown. In cells and extracts the contact can be indirect. Some binding calls cover weakened binding; strength is not graded here. For some of these results: Tags and fused reporters may be left off the sequences shown. One block for each molecule: values may come before it.

Amino acid sequences for entries named in this document (tags omitted). A change or cut given only in a name is not applied to a line headed by its entry. Residues count along the entry.
UniProt P03372: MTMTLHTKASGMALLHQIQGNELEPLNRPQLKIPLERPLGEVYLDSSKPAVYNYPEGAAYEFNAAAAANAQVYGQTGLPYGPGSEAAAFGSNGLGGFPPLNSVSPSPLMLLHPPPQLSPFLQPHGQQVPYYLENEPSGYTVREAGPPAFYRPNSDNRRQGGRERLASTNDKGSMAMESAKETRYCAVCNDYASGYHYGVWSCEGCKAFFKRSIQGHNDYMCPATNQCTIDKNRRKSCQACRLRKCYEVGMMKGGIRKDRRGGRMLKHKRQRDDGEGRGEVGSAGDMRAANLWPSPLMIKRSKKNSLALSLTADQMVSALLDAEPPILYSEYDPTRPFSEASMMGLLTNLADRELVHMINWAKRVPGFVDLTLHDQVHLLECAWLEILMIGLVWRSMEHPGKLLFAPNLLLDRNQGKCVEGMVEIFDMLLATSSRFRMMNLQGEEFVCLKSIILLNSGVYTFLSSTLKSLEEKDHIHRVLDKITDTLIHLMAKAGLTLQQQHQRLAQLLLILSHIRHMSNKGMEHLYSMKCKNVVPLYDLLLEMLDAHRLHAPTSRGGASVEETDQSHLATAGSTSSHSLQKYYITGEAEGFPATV
GST ERα-AF2 (282-595aa): residues 282-595 of P03372

Tests used:
[1] = target: T1, FLAG-tagged MYSM1 (Myb like, SWIRM and MPN domains 1), full length (human) (UniProt Q5VVJ2); test: co-IP; anti-FLAG immunoprecipitation (IgG control) from whole-cell extracts of HEK293 (Fig. 1B, EV1E) or MCF-7 (Fig. 1F) cells co-transfected with FLAG-MYSM1 (wild type or deletion mutants) and ERα; Fig. 1B: estrogen-depleted medium 48 h, then ethanol vehicle or E2 (100 nM) for 12 h; Protein A/G agarose, overnight, three rinses, immunoblot
T1 sequence: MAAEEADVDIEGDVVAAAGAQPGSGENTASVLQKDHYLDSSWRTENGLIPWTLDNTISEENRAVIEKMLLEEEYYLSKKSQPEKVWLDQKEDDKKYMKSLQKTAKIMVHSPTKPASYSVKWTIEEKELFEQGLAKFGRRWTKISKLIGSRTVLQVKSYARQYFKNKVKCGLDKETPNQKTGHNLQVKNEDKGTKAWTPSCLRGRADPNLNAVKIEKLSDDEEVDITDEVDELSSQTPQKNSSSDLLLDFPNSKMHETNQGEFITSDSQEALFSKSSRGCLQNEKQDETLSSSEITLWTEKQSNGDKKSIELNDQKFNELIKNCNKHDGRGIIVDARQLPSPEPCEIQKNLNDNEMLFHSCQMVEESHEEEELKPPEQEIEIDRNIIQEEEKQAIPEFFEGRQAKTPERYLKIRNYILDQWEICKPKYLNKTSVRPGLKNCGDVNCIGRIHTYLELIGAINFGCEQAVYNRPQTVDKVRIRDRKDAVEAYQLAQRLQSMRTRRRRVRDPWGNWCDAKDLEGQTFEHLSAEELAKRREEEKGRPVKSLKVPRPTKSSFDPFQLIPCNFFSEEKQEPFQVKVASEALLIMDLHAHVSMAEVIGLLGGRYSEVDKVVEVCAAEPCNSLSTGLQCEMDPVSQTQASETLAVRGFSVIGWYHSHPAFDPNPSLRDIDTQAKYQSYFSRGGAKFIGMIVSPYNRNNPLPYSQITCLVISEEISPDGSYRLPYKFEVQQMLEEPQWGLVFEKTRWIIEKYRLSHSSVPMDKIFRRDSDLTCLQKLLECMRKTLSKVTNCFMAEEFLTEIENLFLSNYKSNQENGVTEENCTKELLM

[2] = target: T2, endogenous MYSM1 (human (endogenous in MCF-7 and T47D)) (UniProt Q5VVJ2); test: co-IP; reciprocal co-immunoprecipitation of endogenous MYSM1 and ERα from MCF-7 (Fig. 1C,D) and T47D (Fig. EV1C,D, in response to E2) lysates with the indicated antibodies; immunoblot
T2 sequence: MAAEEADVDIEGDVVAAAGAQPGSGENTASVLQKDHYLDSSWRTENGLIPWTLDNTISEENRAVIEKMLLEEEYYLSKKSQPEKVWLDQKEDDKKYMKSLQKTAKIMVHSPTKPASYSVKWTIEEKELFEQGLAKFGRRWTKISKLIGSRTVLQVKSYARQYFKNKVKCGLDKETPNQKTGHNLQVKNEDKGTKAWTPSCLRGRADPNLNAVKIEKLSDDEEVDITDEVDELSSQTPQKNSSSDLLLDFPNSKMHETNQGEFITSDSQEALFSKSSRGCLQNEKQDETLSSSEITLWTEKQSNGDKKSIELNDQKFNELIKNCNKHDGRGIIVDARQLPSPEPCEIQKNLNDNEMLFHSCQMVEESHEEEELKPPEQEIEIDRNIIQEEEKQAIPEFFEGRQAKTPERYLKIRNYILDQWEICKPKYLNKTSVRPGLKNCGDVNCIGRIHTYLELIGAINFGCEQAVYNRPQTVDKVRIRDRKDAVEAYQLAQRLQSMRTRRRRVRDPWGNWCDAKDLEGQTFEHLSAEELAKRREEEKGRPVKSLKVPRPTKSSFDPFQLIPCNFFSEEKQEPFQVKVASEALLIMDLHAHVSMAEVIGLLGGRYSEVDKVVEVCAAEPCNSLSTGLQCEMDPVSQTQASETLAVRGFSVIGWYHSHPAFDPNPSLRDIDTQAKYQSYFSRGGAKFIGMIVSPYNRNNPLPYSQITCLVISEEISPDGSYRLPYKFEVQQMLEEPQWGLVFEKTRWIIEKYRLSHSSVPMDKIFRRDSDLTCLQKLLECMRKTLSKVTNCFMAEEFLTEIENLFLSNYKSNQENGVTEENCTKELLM

[3] = target: GST ERα-AF2 (282-595aa) (human) (UniProt P03372); test: pull-down; GST fusion protein from E. coli on glutathione-Sepharose beads incubated with in vitro transcribed and translated MYSM1; beads rinsed three times; SDS-PAGE and autoradiography or western blot (methods); only the target purified
[4] = target: endogenous ERα (estrogen receptor alpha) (human (endogenous in MCF-7 and T47D)) (UniProt P03372); test: co-IP; immunoprecipitation with anti-ERα or IgG from MCF-7 cells carrying control shRNA or shMYSM1; immunoblot for p300, CBP, pCAF, MYSM1 and ERα

- binding [1]: binds
Molecule: ERα (estrogen receptor alpha), ectopically expressed (from UniProt P03372 1-595)

- binding [2]: binds
Molecule: endogenous ERα (estrogen receptor alpha) (from UniProt P03372 1-595)

- binding [3]: binds
B1: in vitro transcribed and translated FLAG-MYSM1 (enzyme, UniProt Q5VVJ2 1-828)
chain: MAAEEADVDIEGDVVAAAGAQPGSGENTASVLQKDHYLDSSWRTENGLIPWTLDNTISEENRAVIEKMLLEEEYYLSKKSQPEKVWLDQKEDDKKYMKSLQKTAKIMVHSPTKPASYSVKWTIEEKELFEQGLAKFGRRWTKISKLIGSRTVLQVKSYARQYFKNKVKCGLDKETPNQKTGHNLQVKNEDKGTKAWTPSCLRGRADPNLNAVKIEKLSDDEEVDITDEVDELSSQTPQKNSSSDLLLDFPNSKMHETNQGEFITSDSQEALFSKSSRGCLQNEKQDETLSSSEITLWTEKQSNGDKKSIELNDQKFNELIKNCNKHDGRGIIVDARQLPSPEPCEIQKNLNDNEMLFHSCQMVEESHEEEELKPPEQEIEIDRNIIQEEEKQAIPEFFEGRQAKTPERYLKIRNYILDQWEICKPKYLNKTSVRPGLKNCGDVNCIGRIHTYLELIGAINFGCEQAVYNRPQTVDKVRIRDRKDAVEAYQLAQRLQSMRTRRRRVRDPWGNWCDAKDLEGQTFEHLSAEELAKRREEEKGRPVKSLKVPRPTKSSFDPFQLIPCNFFSEEKQEPFQVKVASEALLIMDLHAHVSMAEVIGLLGGRYSEVDKVVEVCAAEPCNSLSTGLQCEMDPVSQTQASETLAVRGFSVIGWYHSHPAFDPNPSLRDIDTQAKYQSYFSRGGAKFIGMIVSPYNRNNPLPYSQITCLVISEEISPDGSYRLPYKFEVQQMLEEPQWGLVFEKTRWIIEKYRLSHSSVPMDKIFRRDSDLTCLQKLLECMRKTLSKVTNCFMAEEFLTEIENLFLSNYKSNQENGVTEENCTKELLM
modifications: 35S label (legend: 35S-MYSM1)

- binding [4]: binds
B2: endogenous MYSM1 (enzyme, UniProt Q5VVJ2 1-828)
chain: MAAEEADVDIEGDVVAAAGAQPGSGENTASVLQKDHYLDSSWRTENGLIPWTLDNTISEENRAVIEKMLLEEEYYLSKKSQPEKVWLDQKEDDKKYMKSLQKTAKIMVHSPTKPASYSVKWTIEEKELFEQGLAKFGRRWTKISKLIGSRTVLQVKSYARQYFKNKVKCGLDKETPNQKTGHNLQVKNEDKGTKAWTPSCLRGRADPNLNAVKIEKLSDDEEVDITDEVDELSSQTPQKNSSSDLLLDFPNSKMHETNQGEFITSDSQEALFSKSSRGCLQNEKQDETLSSSEITLWTEKQSNGDKKSIELNDQKFNELIKNCNKHDGRGIIVDARQLPSPEPCEIQKNLNDNEMLFHSCQMVEESHEEEELKPPEQEIEIDRNIIQEEEKQAIPEFFEGRQAKTPERYLKIRNYILDQWEICKPKYLNKTSVRPGLKNCGDVNCIGRIHTYLELIGAINFGCEQAVYNRPQTVDKVRIRDRKDAVEAYQLAQRLQSMRTRRRRVRDPWGNWCDAKDLEGQTFEHLSAEELAKRREEEKGRPVKSLKVPRPTKSSFDPFQLIPCNFFSEEKQEPFQVKVASEALLIMDLHAHVSMAEVIGLLGGRYSEVDKVVEVCAAEPCNSLSTGLQCEMDPVSQTQASETLAVRGFSVIGWYHSHPAFDPNPSLRDIDTQAKYQSYFSRGGAKFIGMIVSPYNRNNPLPYSQITCLVISEEISPDGSYRLPYKFEVQQMLEEPQWGLVFEKTRWIIEKYRLSHSSVPMDKIFRRDSDLTCLQKLLECMRKTLSKVTNCFMAEEFLTEIENLFLSNYKSNQENGVTEENCTKELLM
